Test results taken from paper PMC2176068.
For some assays here: Weaker means in comparison with the reference protein, sequence or condition of that experiment. For some assays here: The exact form of at least one protein or probe is not confirmed. For some assays here: At least one verdict rests on a figure or table, not on a statement of the authors.

The chains behind the UniProt entries cited, without tags or fusion partners. Residues count along the entry.
UniProt P51858, 35-237, stated change not applied: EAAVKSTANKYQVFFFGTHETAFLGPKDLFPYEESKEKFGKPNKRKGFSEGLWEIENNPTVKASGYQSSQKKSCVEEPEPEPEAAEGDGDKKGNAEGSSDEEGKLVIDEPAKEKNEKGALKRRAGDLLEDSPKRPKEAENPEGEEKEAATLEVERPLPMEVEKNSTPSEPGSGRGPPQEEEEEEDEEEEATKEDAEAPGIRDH

How the values were obtained:
GST-HDGF (Homo sapiens) = GST-HDGF (Homo sapiens) (UniProt P51858); assay: EMSA; settings: 10 mM Tris pH 7.5, 50 mM KCl, 1 mM DTT, 5% glycerol, 0.05% NP-40, 0.1 ug sheared salmon sperm DNA; 1 ug protein, 0.25 pmol probe, 30 min on ice; 5% PAGE in 0.1x TBE; recombinant protein; protein details: N-terminal GST (pGEX-4T2); label: 5' biotin; letters put together from the description
[1] = target: GST-HDGF Δ35-237 (Homo sapiens) (UniProt P51858); assay: EMSA; settings: 10 mM Tris pH 7.5, 50 mM KCl, 1 mM DTT, 5% glycerol, 0.05% NP-40, 0.1 ug sheared salmon sperm DNA; 1 ug protein, 0.25 pmol probe, 30 min on ice; 5% PAGE in 0.1x TBE; recombinant protein; residues 35-237; protein details: N-terminal GST; label: 5' biotin (sense strand)

CAGGCTGGTCTTGAACTCCTGACCTCAGATGATCCATGTGCCTCGGCCTC (double strand) [50 bp probe (3' deletion)]
binding result (GST-HDGF (Homo sapiens)): binds

CAGGCTGGTCTTGAACTCCTGACCTCAGATGATCCATGTGCCTCGGCCTCCCAAGGTGGGGATTACAGGCGTGAGCCACC (double strand) [SMYD1 promoter 80 bp probe]
binding result [1]: binds more weakly
